# In the supplement of paper PMC8728848:
# The list shows a part of the results.
# What was measured:
# Test in all cases: glycan array binding signal (z-score within array); higher = stronger binding
# Conditions in all cases: glycan notation: IUPAC condensed, linker removed
# [1] = target: GlcNAc(b1-2)Man(a1-3)[GlcNAc(b1-2)Man(a1-6)]Man(b1-4)GlcNAc(b1-4)GlcNAc
# In short: (§1)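 Glycan array data came from 3228 arrays in the Consortium for Functional Glycomics database, and only arrays with an available protein sequence were kept. Glycan names were put into IUPAC-condensed notation, and columns mapping to the same glycan were averaged. The binding signal is a within-array Z-score, averaged across arrays of one protein sequence run at different concentrations or buffers and across linkers. A negative Z-score can be read as non-binding.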
# [2] = target: GlcNAc(b1-3)Gal
# In short: as §1
# [3] = target: GlcNAc(b1-3)Gal(b1-3)GalNAc
# In short: as §1
# [4] = target: GlcNAc(b1-3)Gal(b1-4)Glc
# In short: as §1
# [5] = target: GlcNAc(b1-3)Gal(b1-4)GlcNAc
# In short: as §1
# [6] = target: GlcNAc(b1-3)Gal(b1-4)GlcNAc(b1-3)Gal(b1-4)GlcNAc
# In short: as §1
# [7] = target: GlcNAc(b1-3)GalNAc
# In short: as §1
# [8] = target: GlcNAc(b1-3)[GlcNAc(b1-4)][GlcNAc(b1-6)]GlcNAc
# In short: as §1
# [9] = target: GlcNAc(b1-3)[GlcNAc(b1-6)]Gal(b1-4)GlcNAc
# In short: as §1
# [10] = target: GlcNAc(b1-3)[GlcNAc(b1-6)]GlcNAc
# In short: as §1
# [11] = target: GlcNAc(b1-4)Gal(b1-4)GlcNAc
# In short: as §1
# [12] = target: GlcNAc(b1-4)GlcNAc(b1-4)GlcNAc
# In short: as §1
# [13] = target: GlcNAc(b1-4)GlcNAc(b1-4)GlcNAc(b1-4)GlcNAc(b1-4)GlcNAc
# In short: as §1
# [14] = target: GlcNAc(b1-4)GlcNAc(b1-4)GlcNAc(b1-4)GlcNAc(b1-4)GlcNAc(b1-4)GlcNAc
# In short: as §1
# [15] = target: GlcNAc(b1-4)[GlcNAc(b1-6)]GalNAc
# In short: as §1
# [16] = target: GlcNAc(b1-6)Gal(b1-4)GlcNAc
# In short: as §1
# [17] = target: GlcNAc(b1-6)GalNAc
# In short: as §1
# [18] = target: Kdn(a2-3)Gal(b1-3)GlcNAc
# In short: as §1
# [19] = target: Kdn(a2-3)Gal(b1-4)GlcNAc
# In short: as §1
# [20] = target: Man(a1-2)Man(a1-2)Man(a1-3)Man
# In short: as §1
# [21] = target: Man(a1-2)Man(a1-2)Man(a1-3)[Man(a1-2)Man(a1-3)[Man(a1-2)Man(a1-6)]Man(a1-6)]Man(b1-4)GlcNAc(b1-4)GlcNAc
# In short: as §1
# [22] = target: Man(a1-2)Man(a1-2)Man(a1-3)[Man(a1-2)Man(a1-6)[Man(a1-3)]Man(a1-6)]Man(b1-4)GlcNAc(b1-4)GlcNAc
# In short: as §1
# [23] = target: Man(a1-2)Man(a1-2)Man(a1-6)[Man(a1-3)]Man
# In short: as §1
# [24] = target: Man(a1-2)Man(a1-3)Man
# In short: as §1
# [25] = target: Man(a1-2)Man(a1-3)[Man(a1-2)Man(a1-6)]Man
# In short: as §1
# [26] = target: Man(a1-2)Man(a1-3)[Man(a1-3)[Man(a1-6)]Man(a1-6)]Man(b1-4)GlcNAc(b1-4)GlcNAc
# In short: as §1
# [27] = target: Man(a1-2)Man(a1-3)[Man(a1-6)]Man(a1-6)[Man(a1-2)Man(a1-3)]Man(b1-4)GlcNAc(b1-4)GlcNAc
# In short: as §1
# [28] = target: Man(a1-3)[Man(a1-6)]Man
# In short: as §1
# [29] = target: Man(a1-3)[Man(a1-6)]Man(a1-6)[Man(a1-3)]Man(b1-4)GlcNAc(b1-4)GlcNAc
# In short: as §1
# [30] = target: Man(a1-3)[Man(a1-6)]Man(b1-4)GlcNAc(b1-4)GlcNAc
# In short: as §1
# [31] = target: Man(b1-4)GlcNAc
# In short: as §1
# [32] = target: Neu5Ac(a2-3)Gal
# In short: as §1
# [33] = target: Neu5Ac(a2-3)Gal(b1-3)GalNAc
# In short: as §1
# [34] = target: Neu5Ac(a2-3)Gal(b1-3)GalNAc(b1-3)Gal(a1-4)Gal(b1-4)Glc
# In short: as §1
# [35] = target: Neu5Ac(a2-3)Gal(b1-3)GalNAc(b1-4)[Neu5Ac(a2-3)]Gal(b1-4)Glc
# In short: as §1
# [36] = target: Neu5Ac(a2-3)Gal(b1-3)GalNAc6S
# In short: as §1
# [37] = target: Neu5Ac(a2-3)Gal(b1-3)GlcNAc
# In short: as §1
# [38] = target: Neu5Ac(a2-3)Gal(b1-3)GlcNAc(b1-3)Gal(b1-3)GlcNAc
# In short: as §1
# [39] = target: Neu5Ac(a2-3)Gal(b1-3)GlcNAc(b1-3)Gal(b1-4)GlcNAc
# In short: as §1
# [40] = target: Neu5Ac(a2-3)Gal(b1-3)GlcNAc6S
# In short: as §1
# [41] = target: Neu5Ac(a2-3)Gal(b1-3)[Fuc(a1-4)]GlcNAc
# In short: as §1
# [42] = target: Neu5Ac(a2-3)Gal(b1-3)[Fuc(a1-4)]GlcNAc(b1-3)Gal(b1-4)[Fuc(a1-3)]GlcNAc
# In short: as §1
# [43] = target: Neu5Ac(a2-3)Gal(b1-3)[Neu5Ac(a2-3)Gal(b1-4)]GlcNAc
# In short: as §1
binder,measurement,setting,value
"C-Reactive Protein (Homo sapiens), P02741 (protein) MEKLLCFLVLTSLSHAFGQTDMSRKAFVFPKESDTSYVSLKAPLTKPLKAFTVCLHFYTELSSTRGYSIFSYATKRQDNEILIFWSKDIGYSFTVGGSEILFEVPEVTVAPVHICTSWESASGIVEFWVDGKPRVRKSLKKGYTVGAEASIILGQEQDSFGGNFEGSQSLVGDIGNVNMWDFVLSPDEINTIYLGGPFSPNVLNWRALKYEVQGEVFTKPQLWP",glycan array binding signal (z-score),[1],-0.414
same,glycan array binding signal (z-score),[2],-0.634
same,glycan array binding signal (z-score),[3],-0.505
same,glycan array binding signal (z-score),[4],-0.384
same,glycan array binding signal (z-score),[5],-0.596
same,glycan array binding signal (z-score),[6],-0.759
same,glycan array binding signal (z-score),[7],0.115
same,glycan array binding signal (z-score),[8],0.055
same,glycan array binding signal (z-score),[9],-0.5
same,glycan array binding signal (z-score),[10],-0.233
same,glycan array binding signal (z-score),[11],-0.585
same,glycan array binding signal (z-score),[12],1.94
same,glycan array binding signal (z-score),[13],-0.529
same,glycan array binding signal (z-score),[14],-0.081
same,glycan array binding signal (z-score),[15],-0.377
same,glycan array binding signal (z-score),[16],-0.512
same,glycan array binding signal (z-score),[17],-0.319
same,glycan array binding signal (z-score),[18],-0.402
same,glycan array binding signal (z-score),[19],-0.32
same,glycan array binding signal (z-score),[20],-0.422
same,glycan array binding signal (z-score),[21],-0.496
same,glycan array binding signal (z-score),[22],-0.494
same,glycan array binding signal (z-score),[23],-0.273
same,glycan array binding signal (z-score),[24],-0.318
same,glycan array binding signal (z-score),[25],-0.343
same,glycan array binding signal (z-score),[26],-0.563
same,glycan array binding signal (z-score),[27],-0.188
same,glycan array binding signal (z-score),[28],-0.727
same,glycan array binding signal (z-score),[29],0.83
same,glycan array binding signal (z-score),[30],-0.294
same,glycan array binding signal (z-score),[31],-0.423
same,glycan array binding signal (z-score),[32],-0.084
same,glycan array binding signal (z-score),[33],-0.253
same,glycan array binding signal (z-score),[34],0.607
same,glycan array binding signal (z-score),[35],0.03
same,glycan array binding signal (z-score),[36],-0.274
same,glycan array binding signal (z-score),[37],-0.407
same,glycan array binding signal (z-score),[38],-0.281
same,glycan array binding signal (z-score),[39],-0.582
same,glycan array binding signal (z-score),[40],0.718
same,glycan array binding signal (z-score),[41],-0.459
same,glycan array binding signal (z-score),[42],0.712
same,glycan array binding signal (z-score),[43],0.258

# Reformatted: entries from further up
binder	measurement	setting	value
C-Reactive Protein (Homo sapiens), P02741 (protein) MEKLLCFLVLTSLSHAFGQTDMSRKAFVFPKESDTSYVSLKAPLTKPLKAFTVCLHFYTELSSTRGYSIFSYATKRQDNEILIFWSKDIGYSFTVGGSEILFEVPEVTVAPVHICTSWESASGIVEFWVDGKPRVRKSLKKGYTVGAEASIILGQEQDSFGGNFEGSQSLVGDIGNVNMWDFVLSPDEINTIYLGGPFSPNVLNWRALKYEVQGEVFTKPQLWP	glycan array binding signal (z-score)	[5]	-0.596
same	glycan array binding signal (z-score)	[6]	-0.759
